Taken from: PubChem BioAssay AID686943 (Drosophila RNAi Screening Center, 2013)
In all, the deposit lists about 23,000 reagents; this is an unselected part of those that have a named target and a result. 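Extra replicates exist only for a retested subset of genes; insulin dose and duration not given; both raised and lowered dpERK matter.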 A plus sign joins genes that one reagent is predicted to hit. The record does not give: the amount of reagent, the time to read-out.

Purpose: 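Knockdowns that increase or decrease active ERK after insulin receptor stimulation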 (primary screen)
System: Drosophila S2R+ haemocyte-like cells expressing YFP-tagged ERK (Rolled)
Reagents: long dsRNA against Drosophila genes
Conditions: insulin stimulation versus unstimulated cells; dose and duration not given
Measurement: 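Per-plate z-scores of phospho-ERK immunostaining normalised to YFP-tagged ERK, measured with and without insulin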
Reading the numbers: replicate 1, z-score of dpERK with insulin and replicate 2, z-score of dpERK with insulin: higher = more active ERK per ERK-YFP after insulin; replicate 1, z-score of dpERK under basal conditions: higher = more basal active ERK per ERK-YFP; replicate 1, z-score of ERK-YFP with insulin: higher = more YFP-tagged ERK signal

predicted target | dsRNA | replicate 1, z-score of dpERK with insulin | replicate 2, z-score of dpERK with insulin | replicate 1, z-score of dpERK under basal conditions | replicate 1, z-score of ERK-YFP with insulin
CG6345 (GeneID 41271) | DRSC16024 | 1.15 | 0.58 | 0.58 | -0.01
Polr3E (GeneID 40325) | DRSC11880 | 1 | 0.66 | -0.76 | -1.39
Zip102B (GeneID 43786) | DRSC17155 | 0.33 | 0.52 | -0.28 | -0.25
Tep3 (GeneID 34045) | DRSC03452 | -0.69 | -0.71 | -2.15 | 1.83
hay (GeneID 39202) | DRSC11354 | 1.1 | -0.19 | 8.38 | 2.1
wor (GeneID 34906) | DRSC03637 | 0.08 | -0.19 | 0.4 | 0.12
CG6951 (GeneID 40222) | DRSC10755 | -0.15 | 0.07 | 0.58 | 1.22
mRpL49 (GeneID 32242) | DRSC19908 | -0.96 | -0.05 | -0.04 | 1.82
Miox (GeneID 39391) | DRSC10747 | -0.29 | -0.67 | 0.47 | 0.81
Itgbn (GeneID 35368) | DRSC03493 | 0.67 | 1.47 | -0.01 | -0.75
CG8292 (GeneID 34125) | DRSC03082 | -0.82 | 0.06 | 0.13 | -0.04
CG14835 (GeneID 38832) | DRSC10205 | -0.32 | 0.21 | 0.65 | 0.09
foi (GeneID 38976) | DRSC10719 | -1.91 | -3.82 | -1.49 | 0.33
TfAP-2 (GeneID 40398) | DRSC11601 | 0.36 | 0.83 | 0.01 | 0.36
CDase (GeneID 43618) | DRSC14932 | -0.73 | -0.1 | -0.31 | 0.31
CG13255 (GeneID 50109) | DRSC11702 | 0.31 | -0.06 | 0.38 | 0.95
corto (GeneID 40616) | DRSC12040 | 0.51 | -0.63 | 0.23 | -1.06
corto (GeneID 40616) | DRSC12375 | 0.8 | 0.86 | 1.07 | -0.06
corto (GeneID 40616) | DRSC22279 | -0.32 | 0.46 | -0.74 | -0.21
Src42A (GeneID 35524) | DRSC04865 | 0.6 | 0.71 | -0.08 | -0.09
Src42A (GeneID 35524) | DRSC04915 | -4.88 | -3 | -0.48 | 1.64
CG14416 (GeneID 31273) | DRSC18639 | 0.06 | -0.23 | -1.07 | 0.65
dare (GeneID 36203) | DRSC07602 | -0.25 | -0.05 | -0.02 | 0.73
CG31886 (GeneID 326170) | DRSC03248 | 0.19 | 0.86 | 0.68 | 0.57
Zw (GeneID 32974) | DRSC20303 | -1.09 | 1.03 | -1.96 | 0.49
Pex16 (GeneID 40293) | DRSC11750 | -0.26 | -0.13 | 0.6 | 0.63
CG8229 + CG33199 | DRSC05134 | -1.47 | -0.54 | -1.08 | 1.47
Pits (GeneID 32205) | DRSC19385 | -0.39 | -0.01 | -1.56 | 0.1
Pits (GeneID 32205) | DRSC19812 | 0.31 | 0.48 | 0.12 | -0.2
scro (GeneID 3355151) | DRSC17099 | 0.53 | 0.29 | -0.5 | 0.45
scro (GeneID 3355151) | DRSC17102 | -0.29 | -1.09 | -0.06 | 0.31
CG13829 (GeneID 42740) | DRSC14679 | -0.05 | 0.21 | 0.16 | 0.35
CG12477 (GeneID 40040) | DRSC09886 | -0.65 | -0.16 | 0.55 | 1.18
wdb (GeneID 43312) | DRSC14163 | 0.96 | -1.51 | 0.55 | -1
CG11470 (GeneID 43480) | DRSC14313 | 0.29 | -1.51 | -0.84 | -0.06
CG13667 (GeneID 38956) | DRSC10028 | -0.34 | 0.46 | -0.75 | -0.02
JYalpha (retired record) + JYalpha | DRSC21700 | 0.78 | 0 | -1.5 | 0.18
CG17059 (GeneID 50227) | DRSC06654 | -0.84 | 0.43 | 1.09 | 0.74
CG3420 (GeneID 35585) | DRSC04995 | 0.38 | -0.09 | 0.55 | 0.99
CG13933 (GeneID 38227) | DRSC08402 | 1.34 | 0.08 | -0.05 | 0.25
RunxA (GeneID 4379817) | DRSC20400 | 0.93 | -0.31 | 0.6 | -0.11
RunxA (GeneID 4379817) | DRSC20498 | -0.82 | -2.19 | -1.13 | -1.48
RunxA (GeneID 4379817) | DRSC20524 | -0.04 | -0.23 | 1.28 | 0.59
RunxA (GeneID 4379817) | DRSC21915 | -0.15 | 0.31 | 0.13 | 0.18
E5 (GeneID 45396) | DRSC13000 | -2.77 | -2.54 | -0.99 | -1.76
E5 (GeneID 45396) | DRSC16585 | -1.38 | -3.07 | -0.28 | -1.76
Mgat2 (GeneID 43563) | DRSC16347 | 0.67 | 0.09 | -0.02 | -0.35
Nubpl (GeneID 35452) | DRSC03725 | 0.11 | -0.16 | -0.47 | -0.65
boil (GeneID 31416) | DRSC17872 | 0.78 | -0.13 | -0.2 | 0
Coq4 + frc | DRSC10381 | -1.15 | -0.24 | -0.03 | -0.89
Coq4 + frc | DRSC10382 | -0.52 | -0.68 | 1.45 | -0.14
bs (GeneID 37890) | DRSC04676 | -5.25 | 0.4 | 0.48 | -5.1
Dic4 (GeneID 40039) | DRSC10317 | -0.53 | 1.45 | 0.84 | 0.52
Psc (GeneID 36431) | DRSC07518 | -0.09 | -0.34 | -0.11 | 0.09
CG3746 (GeneID 37593) | DRSC04412 | -0.16 | 0.75 | 0.4 | 0.49
aly (GeneID 45960) | DRSC08707 | -0.02 | 0.64 | -0.63 | 0.24
aly (GeneID 45960) | DRSC21784 | 0.12 | 0.48 | 0.3 | 0.27

Part of the list above, showing only “replicate 1, z-score of dpERK with insulin”:
CG14416 (GeneID 31273) [DRSC18639] = 0.06
dare (GeneID 36203) [DRSC07602] = -0.25
CG31886 (GeneID 326170) [DRSC03248] = 0.19
Zw (GeneID 32974) [DRSC20303] = -1.09
Pex16 (GeneID 40293) [DRSC11750] = -0.26
CG8229 + CG33199 [DRSC05134] = -1.47
Pits (GeneID 32205) [DRSC19385] = -0.39
Pits (GeneID 32205) [DRSC19812] = 0.31
scro (GeneID 3355151) [DRSC17099] = 0.53
